# From article PMC5663480, “Structural inhibition of dynamin-mediated membrane fission by endophilin” (eLife, 2017)
# Sequences of proteins named here, by UniProt entry; tags and fusion partners are left off.
# UniProt O35179: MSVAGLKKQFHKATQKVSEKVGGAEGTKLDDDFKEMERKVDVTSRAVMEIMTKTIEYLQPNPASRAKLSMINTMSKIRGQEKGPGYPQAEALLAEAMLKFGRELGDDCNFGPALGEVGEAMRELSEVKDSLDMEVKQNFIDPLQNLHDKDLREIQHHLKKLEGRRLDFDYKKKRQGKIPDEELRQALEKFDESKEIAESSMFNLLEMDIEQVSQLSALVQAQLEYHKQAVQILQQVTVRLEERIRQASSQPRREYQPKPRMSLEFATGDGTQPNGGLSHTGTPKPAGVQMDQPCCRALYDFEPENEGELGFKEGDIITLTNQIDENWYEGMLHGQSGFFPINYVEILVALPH
# These are yes or no findings as the source states them, for the method shown. Some entries that bind do so weakly or less than the wild type.
# T1: Human dynamin1 (human) (UniProt Q05193)
# T1 sequence: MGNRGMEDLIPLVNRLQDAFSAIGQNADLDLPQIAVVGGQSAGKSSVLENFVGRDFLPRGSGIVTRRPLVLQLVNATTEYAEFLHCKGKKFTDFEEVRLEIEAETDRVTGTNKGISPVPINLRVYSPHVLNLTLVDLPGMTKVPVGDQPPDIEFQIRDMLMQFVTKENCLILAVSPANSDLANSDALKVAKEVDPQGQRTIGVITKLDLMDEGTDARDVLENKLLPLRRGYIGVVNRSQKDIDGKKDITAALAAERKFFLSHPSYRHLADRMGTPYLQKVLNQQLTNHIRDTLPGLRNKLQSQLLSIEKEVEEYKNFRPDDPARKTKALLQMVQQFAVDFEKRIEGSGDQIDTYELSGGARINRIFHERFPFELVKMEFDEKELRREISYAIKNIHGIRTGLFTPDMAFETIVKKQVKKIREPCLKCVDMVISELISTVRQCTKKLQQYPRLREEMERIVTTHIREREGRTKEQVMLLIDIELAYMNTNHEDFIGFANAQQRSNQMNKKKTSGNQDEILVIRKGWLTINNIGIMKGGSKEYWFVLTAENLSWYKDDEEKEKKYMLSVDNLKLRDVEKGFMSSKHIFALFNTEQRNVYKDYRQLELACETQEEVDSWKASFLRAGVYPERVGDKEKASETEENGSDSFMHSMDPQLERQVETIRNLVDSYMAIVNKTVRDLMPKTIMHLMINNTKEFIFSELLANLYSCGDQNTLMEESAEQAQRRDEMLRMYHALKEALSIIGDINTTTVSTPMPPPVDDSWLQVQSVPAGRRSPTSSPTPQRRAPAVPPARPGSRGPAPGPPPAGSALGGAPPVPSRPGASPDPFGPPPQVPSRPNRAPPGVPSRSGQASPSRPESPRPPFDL
# Tests used:
# [1] = target: T1, Human dynamin1 (human); experiment: cryo-EM structure; 2D class averages only (no 3D reconstruction) of membrane-bound co-complex: 6 µM dynamin and 6 µM endophilin with 2 mM GDP, 100% DOPS liposomes (0.63 g/l), GTPase buffer (20 mM HEPES, 100 mM NaCl, 1 mM MgCl2, pH 7.4), 30 min room temperature; tubules pelleted; 0.14% glutaraldehyde on the grid; negative stain in GDP and GMPPCP too; both purified
# [2] = target: T1, Human dynamin1 (human); experiment: cryo-EM structure; 2D class averages of dynamin-only helices on lipid tubules: 8 µM protein with 2 mM GMPPCP, 100% DOPS liposomes (0.75 g/l), GTPase buffer, 30 min room temperature; both purified
Molecule,binding [1],binding [2]
Rat endophilinA1 (from UniProt O35179 1-352),binds,–
"Human dynamin1 (enzyme, UniProt Q05193 1-864) MGNRGMEDLIPLVNRLQDAFSAIGQNADLDLPQIAVVGGQSAGKSSVLENFVGRDFLPRGSGIVTRRPLVLQLVNATTEYAEFLHCKGKKFTDFEEVRLEIEAETDRVTGTNKGISPVPINLRVYSPHVLNLTLVDLPGMTKVPVGDQPPDIEFQIRDMLMQFVTKENCLILAVSPANSDLANSDALKVAKEVDPQGQRTIGVITKLDLMDEGTDARDVLENKLLPLRRGYIGVVNRSQKDIDGKKDITAALAAERKFFLSHPSYRHLADRMGTPYLQKVLNQQLTNHIRDTLPGLRNKLQSQLLSIEKEVEEYKNFRPDDPARKTKALLQMVQQFAVDFEKRIEGSGDQIDTYELSGGARINRIFHERFPFELVKMEFDEKELRREISYAIKNIHGIRTGLFTPDMAFETIVKKQVKKIREPCLKCVDMVISELISTVRQCTKKLQQYPRLREEMERIVTTHIREREGRTKEQVMLLIDIELAYMNTNHEDFIGFANAQQRSNQMNKKKTSGNQDEILVIRKGWLTINNIGIMKGGSKEYWFVLTAENLSWYKDDEEKEKKYMLSVDNLKLRDVEKGFMSSKHIFALFNTEQRNVYKDYRQLELACETQEEVDSWKASFLRAGVYPERVGDKEKASETEENGSDSFMHSMDPQLERQVETIRNLVDSYMAIVNKTVRDLMPKTIMHLMINNTKEFIFSELLANLYSCGDQNTLMEESAEQAQRRDEMLRMYHALKEALSIIGDINTTTVSTPMPPPVDDSWLQVQSVPAGRRSPTSSPTPQRRAPAVPPARPGSRGPAPGPPPAGSALGGAPPVPSRPGASPDPFGPPPQVPSRPNRAPPGVPSRSGQASPSRPESPRPPFDL",–,binds
